In all, about 320,000 compounds went through this assay and about 620 (0.19%) were called active. Inconclusive means that the source gave no clear call. Such entries were picked first, then a sample of the others. Rule as the data show it: active = activation above about 80%; inconclusive = between about 30% and that limit; inactive = weaker than that.
biological target: Transient receptor potential cation channel subfamily V member 1 (Homo sapiens) (UniProt Q8NER1); assay: HTS Assay for Compounds that Act as Agonists of the Vanilloid Receptor 1; conditions: TRPV1-expressing cells, Fluo-8 calcium influx, agonist mode; at 8.33 µM, hits give high values; also: 0% is about no effect
Outline: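 Cells expressing TRPV1 were dye-loaded with Fluo-8 and read kinetically: 10 s baseline, 3 min after compound (agonist portion), then 2 min after EC20 capsaicin (allosteric enhancer portion). Calcium-bound dye fluorescence at 480/520 nm.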

Chains of the proteins cited; added tags and fusions are not shown.
UniProt Q8NER1, whole entry, looked up: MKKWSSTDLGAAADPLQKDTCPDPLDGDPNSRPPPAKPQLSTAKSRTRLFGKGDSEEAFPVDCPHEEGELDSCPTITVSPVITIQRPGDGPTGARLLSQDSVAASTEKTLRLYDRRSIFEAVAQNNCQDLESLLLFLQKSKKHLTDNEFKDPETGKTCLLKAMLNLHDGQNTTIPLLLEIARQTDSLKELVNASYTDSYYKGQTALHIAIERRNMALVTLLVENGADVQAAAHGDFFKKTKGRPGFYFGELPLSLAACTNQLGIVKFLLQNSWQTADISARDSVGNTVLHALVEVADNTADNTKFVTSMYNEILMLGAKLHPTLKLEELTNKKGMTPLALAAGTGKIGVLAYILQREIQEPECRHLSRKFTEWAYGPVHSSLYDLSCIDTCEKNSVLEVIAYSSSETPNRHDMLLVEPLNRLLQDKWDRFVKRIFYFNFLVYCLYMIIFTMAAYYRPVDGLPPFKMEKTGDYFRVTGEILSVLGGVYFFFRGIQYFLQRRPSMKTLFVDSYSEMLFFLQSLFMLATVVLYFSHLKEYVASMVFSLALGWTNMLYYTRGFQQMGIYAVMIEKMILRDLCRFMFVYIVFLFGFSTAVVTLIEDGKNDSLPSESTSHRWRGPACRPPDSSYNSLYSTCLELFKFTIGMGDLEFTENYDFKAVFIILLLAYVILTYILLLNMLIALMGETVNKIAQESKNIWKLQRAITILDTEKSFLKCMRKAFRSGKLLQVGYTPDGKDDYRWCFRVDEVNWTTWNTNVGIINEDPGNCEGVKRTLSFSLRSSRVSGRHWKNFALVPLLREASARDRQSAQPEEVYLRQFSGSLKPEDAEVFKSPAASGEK

How did the activation turn out when `O=C(N/N=C/c1ccc(Cl)cc1)c1sccc1OCc1ccc(F)cc1` was run?
Its activation is inconclusive: 30.8%.

`COc1ccc(NC(=O)N2CCC(C(=O)c3ccc4c(c3)OCCO4)CC2)cc1` was tested. Which activation did it give?
The activation was inconclusive: 72.2%.

How did the activation turn out when `O=C(CNC(=O)c1ccc(Br)o1)NNC(=O)c1ccccc1` was run?
Its activation is inactive: -1.34%.

For `O=C(Nc1cccc([N+](=O)[O-])c1)N1CCN(c2ccccc2)CC1`, which activation is on record?
Its activation is active: 100%.

How did the activation turn out when `Cc1cccc(N2CCN(CC(=O)NCC3CCCCC3)CC2)c1C` was run?
Its activation is inconclusive: 41%.

For `C=CCn1c(N)c(C(=O)NCCC2=CCCCC2)sc1=S`, which activation is on record?
Its activation is inconclusive: 35.5%.

With `CCOc1cccc(NC(=O)c2ccc(S(=O)(=O)N(C)C)cc2)c1` as the compound, how does the activation read?
The activation was inconclusive: 61.9%.

Which activation does the source give for `O=C(Nc1ccc(F)cc1F)c1cc2nc3c(c(C(F)(F)F)n2n1)CCCC3` here?
The activation was inactive: -3.54%.

`Cc1ccc(CNC(=O)NCc2ccccc2)cc1` was tested. Which activation did it give?
The activation was inconclusive: 34.8%.

Which activation does the source give for `CC1(C)C=Cc2cc3ccc(=O)oc3cc2O1` here?
The activation was inconclusive: 37.5%.

For `Cc1cc(C)c(-c2csc(NC(=O)C3=COCCO3)n2)cc1C`, which activation is on record?
The activation was inconclusive: 33.4%.

For `COc1ccc(C(=O)NC(=S)Nc2ccc(CN3CCOCC3)cc2)cc1`, which activation is on record?
The activation was inactive: -1.67%.

Which activation does the source give for `COc1cnc(-c2ccccn2)nc1NC(C)C` here?
Its activation is inactive: -1.59%.

For `CCOC(=O)C1CCN(C(=O)c2ccccc2Oc2ccccc2)CC1`, which activation is on record?
Its activation is inconclusive: 59.5%.

How did the activation turn out when `N/C(=N\OC(=O)c1ccc(Cl)cc1)c1cccnc1` was run?
Its activation is inconclusive: 33.8%.

Which activation does the source give for `Cc1nc(SC(C)C(=O)NCC2CCCO2)c2cc(-c3ccccc3)sc2n1` (stereo unspecified) here?
The activation was inconclusive: 46.1%.

With `CC(C)(C)c1cc(C(=S)N2CCCC2)cc(C(C)(C)C)c1O` as the compound, how does the activation read?
Its activation is inconclusive: 38.8%.

Which activation does the source give for `CCN(CC)c1ccc(S(=O)(=O)N2CCOCC2)cc1NC(=O)CSc1nncn1C` here?
Its activation is inactive: -2.22%.

Which activation does the source give for `C/C(=N/NC(=O)Cc1ccccc1)c1ccc(C)s1` here?
The activation was inconclusive: 67.3%.

How did the activation turn out when `O=C1C=C(Nc2ccc(Cl)cc2)CC(c2ccccc2)C1` (stereo unspecified) was run?
The activation was inconclusive: 42.3%.

`O=C(COC(=O)c1ccccc1C(=O)c1ccccc1)NCCc1ccccc1` was tested. Which activation did it give?
The activation was inactive: 8.48%.

`CN(c1ccc(C(=O)NCCCn2ccnc2)cc1)S(C)(=O)=O` was tested. Which activation did it give?
The activation was inactive: -0.387%.

With `CCOc1ccccc1CNC(=O)C1CCN(c2nnc(C)c3c(C)n(-c4ccc(C)cc4)nc23)CC1` as the compound, how does the activation read?
Its activation is inconclusive: 41.3%.

With `O=C(OCn1nnc2ccccc2c1=O)C1CCCCC1` as the compound, how does the activation read?
Its activation is inactive: -4.31%.

`Cc1nnc2c(NC3CCCC3)nc3ccccc3n12` was tested. Which activation did it give?
The activation was inconclusive: 41.5%.

With `Cc1ccc(NC(=O)c2cc(C)on2)cc1` as the compound, how does the activation read?
The activation was inconclusive: 58%.

Which activation does the source give for `Cc1ccc(NC(=O)CN2C(=O)COc3ccc(S(=O)(=O)N4CCCC4)cc32)c(C)c1` here?
Its activation is inactive: 1.53%.

With `COc1ccc(N2CCN(C(=O)c3ccc(Br)o3)CC2)cc1` as the compound, how does the activation read?
Its activation is inconclusive: 46.4%.

For `COc1cccc(/C=N/Nc2nc3ccccc3[nH]2)c1O`, which activation is on record?
Its activation is inactive: 16%.

Which activation does the source give for `Cc1ccc(S(=O)(=O)Nc2cc(-c3ccc(Cl)cc3)nn2C)cc1` here?
The activation was inactive: 0.65%.

Which activation does the source give for `COc1cc(C(=O)NCCC(=O)NC(C)C)cc(OC)c1OC` here?
Its activation is inactive: -0.0511%.

Which activation does the source give for `CC(C)(C)c1ccc(C(=O)Nc2ccccc2C(=O)NCCN2CCOCC2)cc1` here?
Its activation is inconclusive: 45%.

How did the activation turn out when `O=C(CCCc1nc(-c2ccccc2Cl)no1)NCc1cccnc1` was run?
The activation was inconclusive: 30.7%.

How did the activation turn out when `O=C(Nc1ccc2c(c1)oc1ccccc12)c1ccncc1` was run?
The activation was inconclusive: 46.3%.

Which activation does the source give for `O=C(O)c1cc(-c2ccc(/C=c3\sc4nc5ccc(Br)cc5n4c3=O)o2)ccc1Cl` here?
Its activation is inactive: -3.48%.

How did the activation turn out when `Cc1nc2c(cnn2-c2ccccc2Cl)c(=O)n1-c1ccc(C(C)C)cc1` was run?
The activation was inactive: 0.396%.

For `Cc1ccc(C(C(=O)NC2CCCCC2)N(C(=O)c2csnn2)C2CC2)o1` (stereo unspecified), which activation is on record?
Its activation is inconclusive: 34.8%.

With `O=C(Nc1ccc(Cl)c(Cl)c1)c1ccc2c(c1)OCO2` as the compound, how does the activation read?
Its activation is inconclusive: 75.2%.

`CC(C)(C)c1ccc(OCCCNCc2ccccc2)cc1` was tested. Which activation did it give?
Its activation is inactive: 7.31%.

Which activation does the source give for `COC(=O)N/N=C/c1cc(N=Nc2ccccc2)ccc1O` here?
Its activation is inconclusive: 63.7%.

`Cc1ccc(N2CC(C(=O)OCc3ccccc3F)CC2=O)cc1` (stereo unspecified) was tested. Which activation did it give?
Its activation is inconclusive: 46.4%.

With `CC(=O)c1ccc(NC(=O)Nc2ccc(Cl)cc2)cc1` as the compound, how does the activation read?
Its activation is inconclusive: 43.5%.

Which activation does the source give for `Cc1ccc(CNC(=O)c2ccc(COc3ccccc3)cc2)cc1` here?
Its activation is inconclusive: 53.1%.

Which activation does the source give for `COc1cc2oc3ccccc3c2cc1N(CC(=O)N1CCCCC1)S(=O)(=O)c1ccc(C)cc1` here?
Its activation is inconclusive: 43.5%.

For `CCOc1cc(-c2nc3ccccn3c2NCC2CCCO2)ccc1O` (stereo unspecified), which activation is on record?
Its activation is inactive: 2.69%.

For `CCc1nc2sc3ccccc3c(=O)c2c(=O)n1Cc1ccco1`, which activation is on record?
The activation was inactive: 1.07%.

— PubChem BioAssay AID540275 (National Center for Advancing Translational Sciences (NCATS), 2011)
